Measured values published in article PMC5542696.
These are yes or no findings as the source states them, for the method shown. In cells and extracts the contact can be indirect. Some results given as binding are weak or reduced against the parent protein; the word gives no strength. Sequences can lack the tags named with a protein.

Legend:
[1] = target: T1, Rluc8-OGT (O-GlcNAc transferase fused to Renilla luciferase Rluc8) (UniProt O15294); test: co-IP; HEK-293T cells co-transfected with Rluc8-OGT, YFP-OGA and control or Tax plasmid; lysate immunoprecipitated with anti-OGT antibody; OGA found in the immune complex by its enzymatic activity and YFP fluorescence
T1 sequence: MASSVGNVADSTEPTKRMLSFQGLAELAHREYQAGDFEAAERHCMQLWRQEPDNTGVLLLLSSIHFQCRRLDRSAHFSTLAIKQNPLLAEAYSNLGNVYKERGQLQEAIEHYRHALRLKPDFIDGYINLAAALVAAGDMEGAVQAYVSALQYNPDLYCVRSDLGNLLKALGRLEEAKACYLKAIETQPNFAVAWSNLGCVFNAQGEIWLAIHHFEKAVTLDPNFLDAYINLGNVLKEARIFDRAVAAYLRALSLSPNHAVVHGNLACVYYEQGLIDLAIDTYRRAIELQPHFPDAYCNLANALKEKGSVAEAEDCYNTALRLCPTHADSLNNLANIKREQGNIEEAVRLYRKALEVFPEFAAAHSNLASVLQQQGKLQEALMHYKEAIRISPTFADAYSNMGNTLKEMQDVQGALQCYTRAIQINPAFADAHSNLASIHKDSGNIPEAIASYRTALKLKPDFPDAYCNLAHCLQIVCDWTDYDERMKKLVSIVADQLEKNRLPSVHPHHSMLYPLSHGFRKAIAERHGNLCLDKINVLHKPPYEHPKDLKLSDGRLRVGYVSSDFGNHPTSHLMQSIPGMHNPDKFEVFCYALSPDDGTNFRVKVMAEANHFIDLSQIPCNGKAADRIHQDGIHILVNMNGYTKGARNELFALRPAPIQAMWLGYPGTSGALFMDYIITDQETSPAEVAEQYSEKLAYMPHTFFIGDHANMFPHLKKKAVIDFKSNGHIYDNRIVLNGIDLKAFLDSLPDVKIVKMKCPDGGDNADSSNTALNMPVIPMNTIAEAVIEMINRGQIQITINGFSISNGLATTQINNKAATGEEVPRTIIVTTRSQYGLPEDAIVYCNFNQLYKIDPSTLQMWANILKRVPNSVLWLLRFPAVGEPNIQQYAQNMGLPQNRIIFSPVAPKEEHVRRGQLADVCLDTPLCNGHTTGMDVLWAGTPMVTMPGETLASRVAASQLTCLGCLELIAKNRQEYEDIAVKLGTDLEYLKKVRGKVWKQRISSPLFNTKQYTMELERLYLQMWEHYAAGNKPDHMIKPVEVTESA

[2] = target: T1, Rluc8-OGT (O-GlcNAc transferase fused to Renilla luciferase Rluc8); test: FRET or BRET; BRET saturation assay in living HEK-293T cells: constant Rluc8-OGT cDNA (300 ng/well), increasing OGA-YFP cDNA (10 to 1000 ng/well), with control or Tax plasmid; 48 h after transfection; curves fitted for a single binding site
[3] = target: T1, Rluc8-OGT (O-GlcNAc transferase fused to Renilla luciferase Rluc8); test: FRET or BRET; living HEK-293T cells co-transfected with 300 ng of each cDNA (Rluc8 fusion as donor, YFP or YPet fusion as acceptor); BRET 48 h after transfection, in PBS with 5 uM coelenterazine, read at 485 and 530 nm; for OGT/OGA with control or Tax plasmid

Measured: binding

B1: YFP-OGA (O-GlcNAcase fused to YFP) (enzyme, UniProt O60502 1-916)
chain: MVQKESQATLEERESELSSNPAASAGASLEPPAAPAPGEDNPAGAGGAAVAGAAGGARRFLCGVVEGFYGRPWVMEQRKELFRRLQKWELNTYLYAPKDDYKHRMFWREMYSVEEAEQLMTLISAAREYEIEFIYAISPGLDITFSNPKEVSTLKRKLDQVSQFGCRSFALLFDDIDHNMCAADKEVFSSFAHAQVSITNEIYQYLGEPETFLFCPTEYCGTFCYPNVSQSPYLRTVGEKLLPGIEVLWTGPKVVSKEIPVESIEEVSKIIKRAPVIWDNIHANDYDQKRLFLGPYKGRSTELIPRLKGVLTNPNCEFEANYVAIHTLATWYKSNMNGVRKDVVMTDSEDSTVSIQIKLENEGSDEDIETDVLYSPQMALKLALTEWLQEFGVPHQYSSRQVAHSGAKASVVDGTPLVAAPSLNATTVVTTVYQEPIMSQGAALSGEPTTLTKEEEKKQPDEEPMDMVVEKQEETDHKNDNQILSEIVEAKMAEELKPMDTDKESIAESKSPEMSMQEDCISDIAPMQTDEQTNKEQFVPGPNEKPLYTAEPVTLEDLQLLADLFYLPYEHGPKGAQMLREFQWLRANSSVVSVNCKGKDSEKIEEWRSRAAKFEEMCGLVMGMFTRLSNCANRTILYDMYSYVWDIKSIMSMVKSFVQWLGCRSHSSAQFLIGDQEPWAFRGGLAGEFQRLLPIDGANDLFFQPPPLTPTSKVYTIRPYFPKDEASVYKICREMYDDGVGLPFQSQPDLIGDKLVGGLLSLSLDYCFVLEDEDGICGYALGTVDVTPFIKKCKISWIPFMQEKYTKPNGDKELSEAEKIMLSFHEEQEVLPETFLANFPSLIKMDIHKKVTDPSVAKSMMACLLSSLKANGSRGAFCEVRPDDKRILEFYSKLGCFEIAKMEGFPKDVVILGRSL
binds: [1] | [2] | [3]
